The results in this text go back to PubChem BioAssay AID1347423 (Functional Genomics Laboratory (NCATS/FGL), 2020).

In all, about 52,000 sequences went through this assay and about 210 (0.4%) were called active.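 The calls were made as follows: active = gene whose silencing raises cell survival under the drug, median off-target-corrected z-score across its silencing RNAs 2 or more; inactive = the rest.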 This is one part of the list.

The nature of the experiment: Resistance to Poly (ADP-Ribose) Polymerase inhibitor: Gene Identification via Genome-wide siRNA Screen. The settings on record: mouse BRCA2 R2336H ES cells, olaparib, CellTiter-Glo viability; active compounds read high. In short, it runs like this:
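Genome-wide siRNA screen (3 siRNAs/gene, 20 nM) in mouse ES cells carrying hypomorphic BRCA2 R2336H; olaparib 500 nM added 48 h post-transfection, CellTiter-Glo viability 72 h later. Normalized to plate-median negative control; MAD z-scores, gene median, seed-adjusted.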
(ATP-based viability assays read luminescence as a measure of living cells.)
For the sequence GCGAGCCUUUGAGAAGAAUTT against Emx1, the z-score was inactive: 0.661.

Take GGGACAUGAAAUAAAUGUCTT against Mag: the z-score is inactive: -0.658.

For GGGAGUCCUUAAAAGUCGUTT against Mas1, the z-score was inactive: -1.14.

As for GGGAUAAAAACAGUGGCUUTT against Slc7a12, the z-score is inactive: -0.204.

Take GGCAUGUUUUGGGAAGAGCTT against Btbd6: the z-score was inactive: 1.52.

GGAAAAUCAGACCAUACUGTT against Arl3: the z-score was inactive: -1.98.

Turning to GGUUGUUCAGAUCUUCUGATT against Cias1, the z-score is inactive: 0.0572.

With GCAAUAACUGGAAUAAUGGTT against Slc40a1, the z-score was inactive: 0.685.

On to CCAUUCUCCCGAGAAACUATT against Ela2, for which the z-score is inactive: 0.263.

Consider GGCGAUGAAGAAGUAAUUUTT against Dip3b, for which the z-score is inactive: -1.21.

Turning to CCUUACCACAGCCUCAAUGTT against 6.33E+19, the z-score is inactive: -0.556.

On to GGACAUAAAGGUAAAAUGATT against Zfp275, for which the z-score was inactive: -1.02.

CCACCAAGGAGACAUAGAUTT against Nans: the z-score was inactive: 0.745.

On to GGAGAGGUCAGAAUAAUAATT against BC020151, for which the z-score is inactive: -1.91.

For the sequence CGGAUUAGAAGAGCCAAACTT against Cd59b, the z-score is inactive: -0.462.

As for CGAGAUUGCCAAGGCUCAATT against Hint1, the z-score was inactive: 0.374.

For the sequence GGCAAAGUAUAAAGAAGUATT against Gkap1, the z-score is inactive: 4.97.

On to GCUGGUUUCGGACAUAGCCTT against Actn3, for which the z-score was inactive: 1.54.

Consider GGAGGAGCUUAGCCCUUUUTT against Bad, for which the z-score is inactive: 0.77.

Take “GGAACACAUUGGGUAUGCCTT against 2410004C24Rik”: the z-score is inactive: -0.788.

For GGCAUCAGUGAGGUUUGUCTT against Olfr420, the z-score was inactive: -1.12.

Take “GGACCGACCAAGUUUUUCATT against 2410018G23Rik”: the z-score is inactive: -0.329.

Regarding GGACGAUCAUGACAAGAUGTT against Psmb2, the z-score is inactive: -3.45.

As to GCUCGAAAACUGAGAGUUATT against Pcdhgb1, the z-score was inactive: 1.92.

With CCAAGAUACCUUUUUUGAGTT against Paox, the z-score is inactive: 1.31.

Take “GGUUCAGAAGAGUCAGGAGTT against 5730551F12Rik”: the z-score is inactive: -0.378.

GGAAUUAUGUGGAAAACAGTT against Mapk9: the z-score was inactive: 0.0447.

GGGUCAAAUCUGCUUUUUCTT against Olfr272: the z-score is inactive: -1.16.

Turning to GGUUAUGGAGACAAAGGAUTT against Snf1lk, the z-score is inactive: -1.66.
